No constants are given. Whether binding was seen depends on the method and setting. In cells and extracts the contact can be indirect. A result given as binding can be weak or reduced; the word gives no strength.
The substances below were run against protein phosphatase 2A (PP2A) (mouse (endogenous in mouse aortic VSMCs)) (UniProt P63330) (assay: co-IP; extracts of control or RhoA cKO VSMCs stimulated with AngII for 24 h (also with scramble or Set siRNA, or transfected with HA-Set1 and HA-Set2), immunoprecipitated with anti-PP2A antibody or control IgG, protein G Sepharose, washed with RIPA buffer, western blot).

Protein sequences, listed by entry. Tags and fused reporters are not part of them. Lines headed by an entry give the natural chain unless they say otherwise; changes in a name come on top. Chains listed by the source or under a name are the forms on record and can include a tag or linker.
UniProt P63330: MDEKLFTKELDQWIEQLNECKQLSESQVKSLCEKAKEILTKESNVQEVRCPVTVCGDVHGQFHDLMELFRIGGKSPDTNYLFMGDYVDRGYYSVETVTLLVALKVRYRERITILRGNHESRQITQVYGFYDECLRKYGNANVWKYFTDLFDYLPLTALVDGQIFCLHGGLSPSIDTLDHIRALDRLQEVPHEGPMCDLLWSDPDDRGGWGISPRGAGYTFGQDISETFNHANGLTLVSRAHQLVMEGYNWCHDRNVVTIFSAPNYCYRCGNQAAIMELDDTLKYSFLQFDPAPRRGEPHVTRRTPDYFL
UniProt Q9EQU5: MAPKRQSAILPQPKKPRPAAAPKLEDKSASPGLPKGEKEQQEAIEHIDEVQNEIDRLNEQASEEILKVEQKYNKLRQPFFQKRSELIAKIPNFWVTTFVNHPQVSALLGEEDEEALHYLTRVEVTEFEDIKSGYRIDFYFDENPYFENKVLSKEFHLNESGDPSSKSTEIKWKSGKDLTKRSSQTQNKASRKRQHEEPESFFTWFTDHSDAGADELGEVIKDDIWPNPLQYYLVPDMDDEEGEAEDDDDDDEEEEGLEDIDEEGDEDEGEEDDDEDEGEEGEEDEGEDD
HA-tagged Set isoform 2 (Q9EQU5-2, form named): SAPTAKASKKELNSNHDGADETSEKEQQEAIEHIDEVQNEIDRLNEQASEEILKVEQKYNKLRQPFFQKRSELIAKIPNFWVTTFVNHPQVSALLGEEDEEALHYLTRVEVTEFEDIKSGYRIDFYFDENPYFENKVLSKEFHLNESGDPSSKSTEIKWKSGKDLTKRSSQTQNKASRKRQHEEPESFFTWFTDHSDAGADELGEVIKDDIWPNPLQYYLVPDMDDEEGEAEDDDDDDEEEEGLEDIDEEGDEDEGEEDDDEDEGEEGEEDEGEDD
UniProt P97820: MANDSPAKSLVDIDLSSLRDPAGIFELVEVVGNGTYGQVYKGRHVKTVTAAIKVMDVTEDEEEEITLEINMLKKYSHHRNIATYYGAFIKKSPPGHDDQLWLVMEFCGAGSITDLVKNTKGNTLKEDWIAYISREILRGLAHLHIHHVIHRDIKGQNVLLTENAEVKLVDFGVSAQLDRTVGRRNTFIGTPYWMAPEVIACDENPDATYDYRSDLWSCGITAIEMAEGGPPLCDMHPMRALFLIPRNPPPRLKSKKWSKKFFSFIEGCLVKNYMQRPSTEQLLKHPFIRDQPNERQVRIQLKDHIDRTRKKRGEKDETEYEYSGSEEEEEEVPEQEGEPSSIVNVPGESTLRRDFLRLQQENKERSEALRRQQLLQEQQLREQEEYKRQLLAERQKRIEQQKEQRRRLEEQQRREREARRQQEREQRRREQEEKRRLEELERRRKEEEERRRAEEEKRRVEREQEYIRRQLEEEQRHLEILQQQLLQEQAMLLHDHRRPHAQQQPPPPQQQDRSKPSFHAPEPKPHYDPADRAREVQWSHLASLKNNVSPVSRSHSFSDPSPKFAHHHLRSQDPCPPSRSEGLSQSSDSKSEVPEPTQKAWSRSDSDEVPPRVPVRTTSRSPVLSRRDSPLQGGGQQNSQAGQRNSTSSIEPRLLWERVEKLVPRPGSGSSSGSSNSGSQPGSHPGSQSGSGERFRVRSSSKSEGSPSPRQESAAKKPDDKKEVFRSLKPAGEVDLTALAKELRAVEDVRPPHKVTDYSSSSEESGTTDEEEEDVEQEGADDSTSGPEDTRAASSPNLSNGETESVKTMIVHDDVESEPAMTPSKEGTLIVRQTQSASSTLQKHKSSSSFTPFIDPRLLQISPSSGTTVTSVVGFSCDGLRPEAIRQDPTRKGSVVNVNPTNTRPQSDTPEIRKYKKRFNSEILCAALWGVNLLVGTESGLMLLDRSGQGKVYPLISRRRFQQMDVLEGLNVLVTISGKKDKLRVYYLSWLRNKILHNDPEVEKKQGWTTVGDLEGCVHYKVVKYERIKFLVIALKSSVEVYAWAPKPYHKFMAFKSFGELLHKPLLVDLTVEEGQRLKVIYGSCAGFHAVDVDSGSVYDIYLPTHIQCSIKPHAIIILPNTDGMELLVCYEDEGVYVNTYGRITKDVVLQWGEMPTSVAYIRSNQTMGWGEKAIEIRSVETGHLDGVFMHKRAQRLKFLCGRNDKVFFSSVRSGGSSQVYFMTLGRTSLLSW

binding, binds:
HA-tagged Set isoform 1 (from UniProt Q9EQU5 2-289), HA-tagged Set isoform 2 (from UniProt Q9EQU5-2 2-277), Set (endogenous) (from UniProt Q9EQU5 1-289), mitogen-activated protein kinase kinase kinase kinase 4 (MAP4K4) (from UniProt P97820 1-1233) (enzyme)
